Laboratory results reported in paper doi:10.1101/2021.05.30.446361.
No constants are given. Whether binding was seen depends on the method and setting. In cells and extracts the contact can be indirect. Some binding calls cover weakened binding; strength is not graded here.

Chains of the proteins cited; added tags and fusions are not shown.
UniProt Q92993: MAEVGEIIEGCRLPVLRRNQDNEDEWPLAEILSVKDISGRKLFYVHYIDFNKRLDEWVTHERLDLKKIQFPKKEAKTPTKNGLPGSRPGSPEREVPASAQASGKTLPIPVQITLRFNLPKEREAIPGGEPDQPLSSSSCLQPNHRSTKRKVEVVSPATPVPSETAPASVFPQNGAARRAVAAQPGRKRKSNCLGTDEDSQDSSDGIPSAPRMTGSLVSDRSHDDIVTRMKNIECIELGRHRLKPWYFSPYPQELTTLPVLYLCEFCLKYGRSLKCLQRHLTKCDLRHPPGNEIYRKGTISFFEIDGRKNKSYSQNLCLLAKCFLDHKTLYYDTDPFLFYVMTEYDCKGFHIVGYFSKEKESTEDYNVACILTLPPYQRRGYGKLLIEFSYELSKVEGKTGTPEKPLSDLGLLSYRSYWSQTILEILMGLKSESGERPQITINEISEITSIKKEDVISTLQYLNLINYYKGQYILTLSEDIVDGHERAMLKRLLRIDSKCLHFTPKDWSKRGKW
UniProt Q9NPF5: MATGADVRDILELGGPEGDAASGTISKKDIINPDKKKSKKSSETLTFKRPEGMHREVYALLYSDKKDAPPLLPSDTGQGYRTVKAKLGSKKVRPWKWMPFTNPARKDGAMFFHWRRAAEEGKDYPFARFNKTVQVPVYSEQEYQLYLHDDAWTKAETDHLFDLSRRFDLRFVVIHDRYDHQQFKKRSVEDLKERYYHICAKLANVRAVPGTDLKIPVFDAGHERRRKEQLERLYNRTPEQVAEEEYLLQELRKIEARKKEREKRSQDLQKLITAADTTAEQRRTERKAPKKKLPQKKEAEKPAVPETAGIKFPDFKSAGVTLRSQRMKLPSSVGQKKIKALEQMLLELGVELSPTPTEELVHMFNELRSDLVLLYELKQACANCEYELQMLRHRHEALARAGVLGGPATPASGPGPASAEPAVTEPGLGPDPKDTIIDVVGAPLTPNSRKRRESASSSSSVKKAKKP
UniProt Q9Y265: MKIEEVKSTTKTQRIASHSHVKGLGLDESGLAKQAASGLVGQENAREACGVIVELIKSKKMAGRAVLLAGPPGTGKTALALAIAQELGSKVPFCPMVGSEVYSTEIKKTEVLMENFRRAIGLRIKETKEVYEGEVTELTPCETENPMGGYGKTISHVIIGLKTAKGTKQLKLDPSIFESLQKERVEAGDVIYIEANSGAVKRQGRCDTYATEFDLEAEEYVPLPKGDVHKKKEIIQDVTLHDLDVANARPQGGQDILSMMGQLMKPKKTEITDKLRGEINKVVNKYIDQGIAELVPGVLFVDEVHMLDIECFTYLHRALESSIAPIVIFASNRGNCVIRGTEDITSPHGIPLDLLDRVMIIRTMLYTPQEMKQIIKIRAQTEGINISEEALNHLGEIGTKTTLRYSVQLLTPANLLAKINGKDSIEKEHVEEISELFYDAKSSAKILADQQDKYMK
UniProt P51532: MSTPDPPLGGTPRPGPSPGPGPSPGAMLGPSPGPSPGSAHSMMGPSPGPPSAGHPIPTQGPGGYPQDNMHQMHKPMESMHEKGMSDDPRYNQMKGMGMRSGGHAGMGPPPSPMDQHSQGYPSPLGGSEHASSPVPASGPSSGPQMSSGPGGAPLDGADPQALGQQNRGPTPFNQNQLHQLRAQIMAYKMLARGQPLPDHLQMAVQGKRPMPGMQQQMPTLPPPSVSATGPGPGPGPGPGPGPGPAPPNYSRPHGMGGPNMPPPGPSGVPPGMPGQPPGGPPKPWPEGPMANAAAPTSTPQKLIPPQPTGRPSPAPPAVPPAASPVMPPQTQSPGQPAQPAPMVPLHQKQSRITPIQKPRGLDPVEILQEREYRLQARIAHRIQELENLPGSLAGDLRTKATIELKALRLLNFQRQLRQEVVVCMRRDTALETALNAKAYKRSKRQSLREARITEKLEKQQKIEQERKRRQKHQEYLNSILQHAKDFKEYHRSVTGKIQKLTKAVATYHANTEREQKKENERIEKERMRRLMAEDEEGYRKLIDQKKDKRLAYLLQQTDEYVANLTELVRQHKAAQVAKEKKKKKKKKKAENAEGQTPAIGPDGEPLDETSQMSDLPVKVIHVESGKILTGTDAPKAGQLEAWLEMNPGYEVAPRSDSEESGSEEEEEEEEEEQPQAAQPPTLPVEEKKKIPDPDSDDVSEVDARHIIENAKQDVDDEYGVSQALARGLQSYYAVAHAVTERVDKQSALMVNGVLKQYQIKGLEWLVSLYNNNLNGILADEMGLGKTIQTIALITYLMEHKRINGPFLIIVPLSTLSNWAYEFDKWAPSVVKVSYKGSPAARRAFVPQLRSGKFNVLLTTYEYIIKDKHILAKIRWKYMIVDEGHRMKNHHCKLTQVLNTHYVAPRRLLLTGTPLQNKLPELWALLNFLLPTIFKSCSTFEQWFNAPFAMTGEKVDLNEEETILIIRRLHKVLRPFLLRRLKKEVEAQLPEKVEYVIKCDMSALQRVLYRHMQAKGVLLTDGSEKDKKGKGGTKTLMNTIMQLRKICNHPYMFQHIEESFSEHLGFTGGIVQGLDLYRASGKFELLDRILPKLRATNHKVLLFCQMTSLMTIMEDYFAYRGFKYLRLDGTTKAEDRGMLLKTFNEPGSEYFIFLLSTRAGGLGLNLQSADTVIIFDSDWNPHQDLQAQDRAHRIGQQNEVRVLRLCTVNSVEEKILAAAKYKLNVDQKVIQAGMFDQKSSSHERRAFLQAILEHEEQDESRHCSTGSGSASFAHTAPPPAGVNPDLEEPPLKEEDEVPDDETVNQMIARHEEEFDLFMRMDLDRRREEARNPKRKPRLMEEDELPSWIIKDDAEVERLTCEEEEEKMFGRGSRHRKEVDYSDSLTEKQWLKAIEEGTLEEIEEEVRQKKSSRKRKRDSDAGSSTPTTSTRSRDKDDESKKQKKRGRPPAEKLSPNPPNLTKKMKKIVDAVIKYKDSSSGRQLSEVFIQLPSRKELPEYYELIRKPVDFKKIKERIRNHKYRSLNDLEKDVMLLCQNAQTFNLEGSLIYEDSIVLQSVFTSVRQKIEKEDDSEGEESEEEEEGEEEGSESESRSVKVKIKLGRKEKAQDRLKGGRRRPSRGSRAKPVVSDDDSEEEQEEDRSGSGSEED

What was measured:
[1] = molecular target: FLAG-TIP60 (bait of the hNuA4 complex) (human) (UniProt Q92993); assay: co-IP
FLAG-DMAP1 (human) = FLAG-DMAP1 (human) (UniProt Q9NPF5); assay: co-IP

Q: RuvBL1 (from UniProt Q9Y265 1-456) was tested. Which binding [1] did it give?
A: Its binding is “binds”.

Q: For “BRG1, core ATPase subunit of the human SWI/SNF chromatin remodelling complexes (from UniProt P51532 1-1647)”, which binding [1] is on record?
A: Its binding is “no binding”.

Q: What about the binding (FLAG-DMAP1 (human)) of the same substance?
A: The binding was “binds”.
